Reference: patent US12616751B2, “Photosensitizing antibody-fluorophore conjugates” (The USA, as represented by the Secretary, Department of …, priority 2010, dated 2026)

Tests used:
3T3/HER2+ cells = assay: Fluorescence microscopy, subcellular localization of IR700; format: cell-based; settings: IR700 dye alone, 200 nM
[1] = Quenching efficiency and fluorescence lifetime (FLT) of Pan-IR700 in solution; format: physicochemical
A431 cells [2] = assay: Cell pellet FLT studies; format: cell-based
Protocol: (§1) Reagents. […] All other chemicals used were of reagent grade. […] Then the mixture was purified with a Sephadex G50 column (PD-10; GE Healthcare). The protein concentrations were determined with Coomassie Plus protein assay kit (Pierce Biotechnology) by measuring light absorption at 595 nm (8453 Value System; Agilent Technologies). […] The number of IR700 per antibody was approximately 4 for the 1:4.5 reaction conditions. The addition of 0.4% SDS to the sample dissociated the fluorophores from each other, effectively causing dequenching. Quenching efficiency (QE) for a particular conjugation is defined as the fluorescence intensity with SDS divided by fluorescence intensity without SDS. […] Pan-1R700 was kept at 4° C. in the refrigerator as a stock solution. Fluorescence lifetime measurements. FLT experiments were performed with the eXplore OptixTm-MX2 system (ART Advanced Research Technologies, Inc.) (Hutchinson et al., Biophys J 68:1574-82, 1995; Ma et al., Appl Opt 46:1650-7, 2007). A fixed pulsed laser diode was used as an excitation source at a wavelength of 670 nm. Region of interest (ROI) measurements with a spot size of 1.5 mm were selected at the image plane. […] Lifetime analysis was performed by using the ART OptiView (ART Advanced Research Technologies, Inc.). Lifetime values and lifetime mapping were calculated to fit fluorescence temporal point-spread functions (TPSFs) as single-exponential models with the Fit TPSF tool. Photoimmunotherapy for in vitro and in vivo models. PIT was performed with a red light-emitting diode (LED) light at 680 to 700 nm wavelength (Tech-LED, Marubeni America Co.) (Mitsunaga et al., Bioconjug Chem. 23:604-9, 2012). Power densities were measured with an optical power meter (PM 100, Thorlabs). Determination of FLT for Pan-IR700. Samples of Pan-IR700 at concentrations of 2.5, 5, 20, 40 pg/mL were prepared by dilution with PBS. The fluorescence intensities and lifetimes of each sample were determined using the Optix MX2 system at room temperature within a 1.7 ml centrifuge tube. To investigate the effect of PIT using Pan-1R700, the FLT of each sample at the concentration of 50 pg/mL was measured after irradiating the samples at a PIT dose of 0, 2, 4, 8, 15, 30 J/cm2. Cell line. […] The cell line was grown in RPMI 1640 (Life Technologies) containing 10% fetal bovine serum (Life Technologies), 0.03% L-glutamine, 100 units/mL penicillin, and 100 μg/mL streptomycin in 5% CO2 at 37° C. Cell pellet FLT studies A431. Cells were plated on […] cell culture flasks and incubated until confluent. Then Pan-IR700 conjugate was added to the media (1 pg/mL), and cells were incubated for 24 h at 37° C. Upon completion of incubation, cells were removed from the flasks, and centrifuged to obtain pellets. The resulting cell pellets were washed with PBS×3 and placed in 1.7 mL centrifuge tubes. The fluorescence intensities and lifetimes of each sample were then obtained. To investigate the effect of cellular internalization with Pan-IR700 conjugates, A431 cells were plated on a 75 mm^2 flask and were incubated with Pan-1R700 for 1, 2, 4, 6, 15 and 24 hours. After removing the flasks and obtaining A431 cell pellets, FLT measurements of the A431 pellet was acquired. After the A431 cell pellets were incubated overnight with Pan-R700, cell pellets were irradiated at doses of 0, 2, 4, 8, 15, 30 J/cm2. After that, these pellets were gently washed with PBS×1 and fluorescence intensity and lifetime images were obtained. To detect the antigen specific localization of IR700 and to confirm the morphological changes of A431 cells before and after PIT, fluorescence microscopy was performed using Olympus BX61 microscope (Olympus America) equipped with the following filters: a 590-650 nm excitation filter, a 665-740 nm band pass emission filter. Transmitted light differential interference contrast images (DIC) were also acquired. A431 cells were plated on a cover glass-bottomed culture well and incubated for 24 hours. […]

A431 cells [3] = assay: Fluorescence microscopy of Pan-IR700 in A431 cells; format: cell-based
Protocol: EGFR-expressing A431 cells were used as the target HER1+ cells. […] Cells were grown in RPMI 1640 supplemented with 10% fetal bovine serum and 1% penicillin/streptomycin in tissue culture flasks in a humidified incubator at 37° C. in an atmosphere of 95% air and 5% carbon dioxide. A431 or Balb/3T3/DsRed cells were seeded on cover glass-bottomed dishes and incubated for 24 hours. Pan-IR700 was added to the culture medium at 10 μg/mL and incubated either for 1 hour on ice or 6 hours at 37° C., then cells were washed with PBS. Culture medium was replaced with phenol red-free medium after washing with phosphate buffered saline (PBS).
Fluorescence microscopy was performed as described in Example 2 to detect the antigen-specific localization of IR700.
Reagents. […] All other chemicals used were of reagent grade. […] Then the mixture was purified with a Sephadex G50 column (PD-10; GE Healthcare). The protein concentrations were determined with Coomassie Plus protein assay kit (Pierce Biotechnology) by measuring light absorption at 595 nm (8453 Value System; Agilent Technologies). […] The number of IR700 per antibody was approximately 4 for the 1:4.5 reaction conditions. […] Quenching efficiency (QE) for a particular conjugation is defined as the fluorescence intensity with SDS divided by fluorescence intensity without SDS. […] Fluorescence lifetime measurements. […] Lifetime values and lifetime mapping were calculated to fit fluorescence temporal point-spread functions (TPSFs) as single-exponential models with the Fit TPSF tool. […] Power densities were measured with an optical power meter (PM 100, Thorlabs). […] The fluorescence intensities and lifetimes of each sample were determined using the Optix MX2 system at room temperature within a 1.7 ml centrifuge tube. To investigate the effect of PIT using Pan-1R700, the FLT of each sample at the concentration of 50 pg/mL was measured after irradiating the samples at a PIT dose of 0, 2, 4, 8, 15, 30 J/cm2. […] The fluorescence intensities and lifetimes of each sample were then obtained. […]

A431 tumors = assay: In vivo FLT imaging after PIT; set-up: species or system mice
Protocol: as §1, with “To investigate the effect of cellular internalization with Pan-IR700 conjugates, A431 cells were plated on a 75 mm^2 flask and were incubated with Pan-1R700 for 1, 2, 4, 6, 15 and 24 hours. After removing the flasks and obtaining A431 cell pellets, FLT measurements of the A431 pellet was acquired. After the A431 cell pellets were incubated overnight with Pan-R700, cell pellets were irradiated at doses of 0, 2, 4, 8, 15, 30 J/cm2.” left out, “filter.” for “filter. Transmitted light differential interference contrast images (DIC) were also acquired. A431 cells were plated on a cover glass-bottomed culture well and incubated for 24 hours.”

IRDye® 700DX [IR700]
incorporation of free dye into cells (3T3/HER2+ cells): did not incorporate into the cells | incorporation of free dye into cells (3T3/HER2+ cells; listed as Free IR700 dye): did not incorporate into 3T3/HER2 cells

Pan-IR700: Panitumumab (anti-human EGFR IgG2 MAb) conjugated to IR700; about 3 to 4 IR700 per antibody
FLT ([1]; 2.5 pg/mL): 3.62 ns | FLT ([1]; 5 pg/mL): 3.58 ns | FLT ([1]; 20 pg/mL): 3.44 ns | FLT ([1]; 40 pg/mL): 3.60 ns | FLT after LED irradiation of the solution ([1]; 50 pg/mL, 0, 2, 4, 8, 15, 30 J/cm2): approximately 3.44+/−0.058 ns | FLT, over all concentrations ([1]; 2.5 to 40 pg/mL in PBS): 3.56+/−0.081 ns | FLT of cell pellet (A431 cells [2]; 1 hour incubation): 2.98 ns | FLT of cell pellet (A431 cells [2]; 2 hours incubation): 3.05 ns | FLT of cell pellet (A431 cells [2]; 4 hours incubation): 3.13 ns | FLT of cell pellet (A431 cells [2]; 6 hours incubation): 3.15 ns | FLT of cell pellet (A431 cells [2]; 15 hours incubation): 3.36 ns | FLT of cell pellet (A431 cells [2]; 24 hours incubation): 3.41 ns and 3.42 ns | FLT of cell pellet after PIT (A431 cells [2]; 24 hours incubation, 0 J/cm2): 3.28 ns | FLT of cell pellet after PIT (A431 cells [2]; 24 hours incubation, 8 J/cm2): 3.09 ns | FLT of cell pellet after PIT (A431 cells [2]; 24 hours incubation, 15 J/cm2): 2.94 ns | FLT of cell pellet after PIT (A431 cells [2]; 24 hours incubation, 30 J/cm2): 2.85 ns | subcellular localization (A431 cells [3]; 10 μg/mL, 1 hour on ice): detected on the cell surface | subcellular localization (A431 cells [3]; 10 μg/mL, 6 hours at 37° C.): mainly localized to the lysosome | subcellular localization (A431 cells [3]; 24 hours after incubation): seen on the cell membrane and within endolysosomes | FLT shortening immediately after PIT (A431 tumors; 10 J/cm^2): no significant shortening of FLT | IR700 FLT 6 hours after PIT (A431 tumors; 10 J/cm^2): did not show this transiently prolonged FLT | IR700 FLT 6 hours after PIT (A431 tumors; 30 and 50 J/cm2): Transient prolongation | average FLT of tumors (A431 tumors; 1 day after administration of 100 pg, n=40): 3.27+/−0.46 ns | threshold NIR dose for immediate shortening of FLT (A431 tumors; mouse, in vivo): ≥ 30 J/cm^2

Several values for one entry are separate records, joined by “and”; a condition that tells them apart may be missing. Equal values may be shown once.
